Laboratory results taken from patent publication US20050180949A1 (NUVELO, published 2005).
These are yes or no findings as the source states them, for the method shown. Some entries that bind do so weakly or less than the wild type. Sequences can lack the tags named with a protein.

Molecular target: N-terminal V5His-tagged version of full-length hC1Q/TNF7 (human) (UniProt Q9BXJ2)
Experiment: self-association; SDS-PAGE non-reduced or reduced, with or without heating; anti-V5 Western blot

- binding: binds
B1: full-length hC1Q/TNF7, carboxy-terminal V5His6-tagged, expressed in HEK-293 cells (ligand)
chain: QPRGNQLKGENYSPRYICSIPGLPGPPGPPGANGSPGPHGRIGLPGRDGRDGRKGEKGEKGTAGLRGKTGPLGLAGEKGDQGETGKKGPIGPEGEKGEVGPIGPPGPKGDRGEQGDPGLPGVCRCGSIVLKSAFSVGITTSYPEERLPIIFNKVLFNEGEHYNPATGKFICAFPGIYYFSYDITLANKHLAIGLVHNGQYRIKTFDANTGNHDVASGSTVIYLQPEDEVWLEIFFTDQNGLFSDPGWADSLFSGFLLYVDTDYLDSISEDDEL
notes: The signal peptide cleavage site is only predicted; Oligomer state as told: dimers, tetramers and higher order oligomers; also called HEK293-expressed full-length hC1Q/TNF7; human C1Q/TNF7; not shown: C-terminal V5His6 tag from the pIntron vector
